Record: PubChem BioAssay AID1053208 (Peter MacCallum Cancer Centre, 2014)

- Aim: 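Find knock-downs that sensitise mouse osteosarcoma cells to doxorubicin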 (primary screen)
- Cell system: mouse osteosarcoma cells, early-passage culture from an engineered mouse model of fibroblastic bone tumour
- Knock-down reagent: siRNA pool against mouse genes, 40 nM
- Timing: about 120 h (48 h before drug, then 72 h with drug)
- Conditions: doxorubicin 100 nM for 72 h, roughly 30-40% inhibitory dose
- Read-out: 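Viability read as ATP luminescence after 72 h of 100 nM doxorubicin or none, duplicate wells averaged, scaled to non-targeting siRNA, then expressed as robust z-scores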
- Scale: viability z-score with doxorubicin: higher = more viable cells under doxorubicin; viability z-score without drug: higher = more viable cells with knock-down alone
- Hit rule: 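Called active if knock-down leaves viability unchanged without drug (z within -2 to 2) but lowers it with doxorubicin (z at or under -2)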
In all, the deposit lists about 17,000 reagents; below is a random part of them. In the full data, 788 (4.7%) got an active call. 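Calls rest on z-score classes alone; an extra cut-off of viability at most 70% of control was not applied to them.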 Not all columns of the deposit are shown.

gene	combined z-score class	viability z-score with doxorubicin	viability z-score without drug	activity call
Il27ra	no change with or without drug	-0.22	0.17	inactive
Mustn1	no change with or without drug	1.57	0	inactive
Pard6g	high cell count without drug only	1.35	2.36	inactive
Pomc	high cell count with doxorubicin only	2.02	0.84	inactive
Or8b1d	no change with or without drug	1.8	-0.84	inactive
Ap4s1	no change with or without drug	-0.22	-1.52	inactive
Rock2	high cell count without drug only	1.69	3.71	inactive
Tspan3	no change with or without drug	1.12	0.34	inactive
Phactr4	low cell count with doxorubicin only	-2.92	-0.67	active
Or5w18	no change with or without drug	1.91	0	inactive
Serpina1e	no change with or without drug	-0.67	0.51	inactive
Tmem242	no change with or without drug	0.11	0.17	inactive

2 entries already listed, ordered by “viability z-score without drug”, low to high.
gene	combined z-score class	viability z-score with doxorubicin	viability z-score without drug	activity call
Mustn1	no change with or without drug	1.57	0	inactive
Pard6g	high cell count without drug only	1.35	2.36	inactive

Further results follow.
gene	combined z-score class	viability z-score with doxorubicin	viability z-score without drug	activity call
Or52x1	no change with or without drug	-0.11	0.34	inactive
Csf2	no change with or without drug	0.9	1.85	inactive
Lpin1	high cell count with doxorubicin only	2.25	1.69	inactive
Rps11	low cell count with and without drug	-6.97	-6.41	inactive
Tm6sf2	no change with or without drug	0	0.84	inactive
Or8k40	high cell count with doxorubicin only	2.47	0	inactive
Ifi47	no change with or without drug	-0.9	0.17	inactive
Dvl3	no change with or without drug	0.67	0.51	inactive
